Source: PMC9950447, “Targeting USP10 induces degradation of oncogenic ANLN in esophageal squamous cell carcinoma” (Cell Death and Differentiation, 2022)
These are yes or no findings as the source states them, for the method shown. In cells and extracts the contact can be indirect. Here binding means that the protein was enriched with, or labelled near, the bait; the list need not be complete. One block for each molecule: values may come before it.

The chains behind the UniProt entries cited, without tags or fusion partners. Where a name states a change or a piece, a line headed by the entry shows the natural chain unless it says otherwise. A line that says so, or that is headed by a name, gives the form on record, which may keep a tag or linker.
UniProt Q93009: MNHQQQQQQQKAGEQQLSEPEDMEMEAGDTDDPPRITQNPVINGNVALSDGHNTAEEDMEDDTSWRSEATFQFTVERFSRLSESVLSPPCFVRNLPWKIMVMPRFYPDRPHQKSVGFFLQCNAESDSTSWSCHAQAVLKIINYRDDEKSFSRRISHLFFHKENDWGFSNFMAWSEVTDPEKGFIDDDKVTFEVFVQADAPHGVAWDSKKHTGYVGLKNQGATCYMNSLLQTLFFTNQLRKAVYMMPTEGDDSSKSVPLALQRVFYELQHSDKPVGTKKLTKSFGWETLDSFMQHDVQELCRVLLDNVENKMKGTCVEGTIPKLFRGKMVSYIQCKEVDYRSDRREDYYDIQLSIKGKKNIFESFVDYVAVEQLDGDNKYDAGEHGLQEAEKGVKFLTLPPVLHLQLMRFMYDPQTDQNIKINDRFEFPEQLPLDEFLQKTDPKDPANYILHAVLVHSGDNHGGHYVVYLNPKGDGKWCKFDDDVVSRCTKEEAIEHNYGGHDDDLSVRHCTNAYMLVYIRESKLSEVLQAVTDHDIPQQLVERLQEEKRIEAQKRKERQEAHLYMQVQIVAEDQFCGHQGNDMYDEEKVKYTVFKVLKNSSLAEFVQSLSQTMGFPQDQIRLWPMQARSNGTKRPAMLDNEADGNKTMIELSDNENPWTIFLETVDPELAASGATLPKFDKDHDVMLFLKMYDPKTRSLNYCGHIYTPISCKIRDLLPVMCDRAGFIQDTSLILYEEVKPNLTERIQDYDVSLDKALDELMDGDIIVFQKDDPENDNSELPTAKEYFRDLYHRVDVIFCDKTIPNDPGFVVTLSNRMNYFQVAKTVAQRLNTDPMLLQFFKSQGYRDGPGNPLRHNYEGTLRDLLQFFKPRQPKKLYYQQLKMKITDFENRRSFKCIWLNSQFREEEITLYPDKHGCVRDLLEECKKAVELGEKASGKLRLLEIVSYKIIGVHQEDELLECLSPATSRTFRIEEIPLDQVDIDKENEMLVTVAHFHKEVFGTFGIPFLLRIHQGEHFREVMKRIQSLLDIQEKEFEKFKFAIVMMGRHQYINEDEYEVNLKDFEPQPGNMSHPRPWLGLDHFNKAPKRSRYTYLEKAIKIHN
USP10, endogenous (Q14694-3, form named): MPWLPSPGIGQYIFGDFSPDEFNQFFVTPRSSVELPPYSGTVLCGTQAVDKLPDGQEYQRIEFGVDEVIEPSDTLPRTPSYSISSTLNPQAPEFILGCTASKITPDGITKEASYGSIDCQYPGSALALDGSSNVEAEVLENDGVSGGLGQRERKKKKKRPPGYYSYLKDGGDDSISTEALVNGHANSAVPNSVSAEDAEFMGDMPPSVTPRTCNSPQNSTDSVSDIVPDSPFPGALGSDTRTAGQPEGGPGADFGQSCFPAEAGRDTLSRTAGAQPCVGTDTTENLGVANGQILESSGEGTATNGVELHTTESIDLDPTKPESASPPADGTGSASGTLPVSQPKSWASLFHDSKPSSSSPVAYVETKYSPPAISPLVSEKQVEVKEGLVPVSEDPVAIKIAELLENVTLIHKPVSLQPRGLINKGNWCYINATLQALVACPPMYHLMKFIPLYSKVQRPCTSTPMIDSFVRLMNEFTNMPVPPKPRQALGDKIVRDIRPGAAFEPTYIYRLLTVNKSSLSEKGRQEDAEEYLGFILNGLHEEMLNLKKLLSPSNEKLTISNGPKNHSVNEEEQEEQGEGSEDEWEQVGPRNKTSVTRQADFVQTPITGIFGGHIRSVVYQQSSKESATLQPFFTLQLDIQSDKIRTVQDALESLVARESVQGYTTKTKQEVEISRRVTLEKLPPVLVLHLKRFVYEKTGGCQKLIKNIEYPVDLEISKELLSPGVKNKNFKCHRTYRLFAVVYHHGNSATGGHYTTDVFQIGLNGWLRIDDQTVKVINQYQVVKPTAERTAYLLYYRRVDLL
UniProt Q9Y5T5: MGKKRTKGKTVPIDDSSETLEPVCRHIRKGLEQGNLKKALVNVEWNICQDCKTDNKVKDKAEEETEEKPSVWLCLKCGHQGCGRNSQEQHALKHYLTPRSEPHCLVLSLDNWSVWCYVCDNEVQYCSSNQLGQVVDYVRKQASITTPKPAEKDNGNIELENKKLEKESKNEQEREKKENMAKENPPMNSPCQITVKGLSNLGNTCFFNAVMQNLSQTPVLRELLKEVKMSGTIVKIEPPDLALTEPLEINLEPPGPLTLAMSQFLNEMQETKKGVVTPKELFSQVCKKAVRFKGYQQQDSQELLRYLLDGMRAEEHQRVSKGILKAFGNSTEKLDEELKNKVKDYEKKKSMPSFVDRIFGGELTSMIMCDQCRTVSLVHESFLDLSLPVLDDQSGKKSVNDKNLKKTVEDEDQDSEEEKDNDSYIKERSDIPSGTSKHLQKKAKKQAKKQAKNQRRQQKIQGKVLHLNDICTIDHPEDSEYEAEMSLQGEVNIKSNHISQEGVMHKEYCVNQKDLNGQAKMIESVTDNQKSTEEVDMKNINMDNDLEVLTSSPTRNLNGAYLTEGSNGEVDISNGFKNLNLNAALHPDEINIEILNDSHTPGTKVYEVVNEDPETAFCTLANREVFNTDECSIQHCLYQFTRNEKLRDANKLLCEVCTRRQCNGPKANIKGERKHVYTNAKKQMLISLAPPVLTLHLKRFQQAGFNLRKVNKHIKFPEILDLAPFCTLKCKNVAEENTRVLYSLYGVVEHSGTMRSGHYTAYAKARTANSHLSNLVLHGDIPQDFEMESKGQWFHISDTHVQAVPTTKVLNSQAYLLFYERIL

Biological target: T1, Anillin (ANLN), endogenous (human (endogenous in KYSE150 and KYSE30)) (UniProt Q9NQW6)
T1 sequence: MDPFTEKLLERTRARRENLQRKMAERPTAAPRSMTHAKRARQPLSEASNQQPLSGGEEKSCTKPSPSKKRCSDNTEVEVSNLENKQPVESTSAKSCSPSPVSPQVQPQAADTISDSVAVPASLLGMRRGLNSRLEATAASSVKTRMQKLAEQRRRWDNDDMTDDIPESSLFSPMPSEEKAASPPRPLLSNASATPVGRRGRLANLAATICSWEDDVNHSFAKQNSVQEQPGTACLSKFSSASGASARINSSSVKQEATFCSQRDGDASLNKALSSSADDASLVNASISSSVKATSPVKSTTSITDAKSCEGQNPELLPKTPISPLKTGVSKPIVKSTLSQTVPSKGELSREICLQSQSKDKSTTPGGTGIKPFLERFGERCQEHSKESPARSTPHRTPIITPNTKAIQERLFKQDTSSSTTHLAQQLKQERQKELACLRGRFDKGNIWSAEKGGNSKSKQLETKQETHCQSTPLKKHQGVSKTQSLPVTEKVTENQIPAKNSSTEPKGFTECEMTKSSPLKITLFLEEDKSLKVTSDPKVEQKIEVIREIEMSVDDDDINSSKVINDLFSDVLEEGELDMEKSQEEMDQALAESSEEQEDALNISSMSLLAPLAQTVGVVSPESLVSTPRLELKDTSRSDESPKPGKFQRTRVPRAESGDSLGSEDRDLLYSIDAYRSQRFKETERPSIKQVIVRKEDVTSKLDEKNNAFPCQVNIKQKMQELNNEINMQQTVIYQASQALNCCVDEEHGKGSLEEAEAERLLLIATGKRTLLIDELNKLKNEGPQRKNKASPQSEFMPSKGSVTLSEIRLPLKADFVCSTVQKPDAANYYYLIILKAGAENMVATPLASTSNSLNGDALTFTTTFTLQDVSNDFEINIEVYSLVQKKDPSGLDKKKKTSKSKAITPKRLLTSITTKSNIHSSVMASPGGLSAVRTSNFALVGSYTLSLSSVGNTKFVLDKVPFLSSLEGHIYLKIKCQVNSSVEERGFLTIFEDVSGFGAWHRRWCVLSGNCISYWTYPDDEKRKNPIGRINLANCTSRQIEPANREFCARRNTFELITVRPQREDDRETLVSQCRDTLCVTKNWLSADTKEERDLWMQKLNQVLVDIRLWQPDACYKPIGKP
Assay: affinity purification with mass spectrometry; endogenous ANLN enriched by immunoprecipitation from KYSE150 cells, SDS-PAGE, in-gel trypsin digestion, LC-MS/MS

binding: binds
Molecule: USP7, endogenous (from UniProt Q93009 1-1102) (enzyme)

binding: binds
Molecule: USP10, endogenous (from UniProt Q14694-3 1-802) (enzyme)

binding: binds
Molecule: USP16, endogenous (from UniProt Q9Y5T5 1-823) (enzyme)

binding: binds
B1: USP39, endogenous (protein, UniProt Q53GS9 1-565)
chain: MSGRSKRESRGSTRGKRESESRGSSGRVKRERDREREPEAASSRGSPVRVKREFEPASAREAPASVVPFVRVKREREVDEDSEPEREVRAKNGRVDSEDRRSRHCPYLDTINRSVLDFDFEKLCSISLSHINAYACLVCGKYFQGRGLKSHAYIHSVQFSHHVFLNLHTLKFYCLPDNYEIIDSSLEDITYVLKPTFTKQQIANLDKQAKLSRAYDGTTYLPGIVGLNNIKANDYANAVLQALSNVPPLRNYFLEEDNYKNIKRPPGDIMFLLVQRFGELMRKLWNPRNFKAHVSPHEMLQAVVLCSKKTFQITKQGDGVDFLSWFLNALHSALGGTKKKKKTIVTDVFQGSMRIFTKKLPHPDLPAEEKEQLLHNDEYQETMVESTFMYLTLDLPTAPLYKDEKEQLIIPQVPLFNILAKFNGITEKEYKTYKENFLKRFQLTKLPPYLIFCIKRFTKNNFFVEKNPTIVNFPITNVDLREYLSEEVQAVHKNTTYDLIANIVHDGKPSEGSYRIHVLHHGTGKWYELQDLQVTDILPQMITLSEAYIQIWKRRDNDETNQQGA
